Values quoted from earlier work as cited in patent US20070243222A1, “FUNGICIDAL FORMULATION AND METHOD OF USE” (priority 2006, published 2007).
For at least one compound, name, drawing or mass did not settle the structure.

System: onychomycosis
Conditions: standard oral treatment; survey Arch Dermatol 134(12):1551-1554, 1998; cited from earlier work

CCC(C)n1ncn(-c2ccc(N3CCN(c4ccc(OCC5COC(Cn6cncn6)(c6ccc(Cl)cc6Cl)O5)cc4)CC3)cc2)c1=O (stereo not shown) [itraconazole]
disease-free nails, share of cases: 25-40%
